Measured values reported in PubChem BioAssay AID504467 (National Center for Advancing Translational Sciences (NCATS), 2011).
The whole screen tested about 330,000 compounds, of which about 7,700 (2.3%) were called active. This list was built around the results that the source calls inconclusive (neither active nor inactive); the mix of calls is not that of the screen. Calls follow the shape of the dose curve; as a rule, active = well fitted inhibition curve with a large enough effect; inconclusive = small, poorly fitted or top-dose-only effect, or effect the other way; inactive = flat fitted curve, though single readings scatter. Potencies beside an inconclusive call are fits to weak or partial responses and may not hold up.

Test: qHTS screen for small molecules that inhibit ELG1-dependent DNA repair in human embryonic kidney (HEK293T) cells expressing luciferase-tagged ELG1; also: nearly all actives have a fitted effect of over 55% in size
Details: HEK293T ELG1-luciferase reporter, luminescence, 16 h, DNA damage induced by 5-fluorouridine; activity change, negative = inhibition: at 46.1 µM (top of the series)
How it was run: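 5-Fluorouridine DNA damage + compound/DMSO, 2,000 cells/well, 16 h, 37 °C/5% CO2. ONE-Glo, 30 min RT, luminescence. Readout = decrease in reporter signal.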
% is scaled to controls: 0 for no effect and ±100 for the full control effect; potency is read from the fitted curve at half-maximal effect.

Structure (SMILES)	Potency	activity change, negative = inhibition
COc1ccc(-c2nnnn2CCc2ccccc2)cc1	inconclusive: 29.1 µM [activator, single point]	
Cc1nn2c(=O)cc(COC(=O)c3c(F)cccc3Cl)nc2s1	inconclusive: 6.51 µM [activator, partial curve]	
CC(=O)c1ccc(OCc2cc(C(=O)N(C)CCOc3ccc(C)cc3)no2)cc1	inconclusive: 16.4 µM [activator, partial curve]	
CCOC(=O)CNC(=O)c1cc(-c2ccc3c(c2)OCCO3)oc1C	inconclusive: 11.2 µM [activator, partial curve, poor fit]	
Cc1ccccc1N=C/C=C1/C=C(c2ccccc2)OC(C)(C)O1	active: 13 µM	
COc1ccc([N+](=O)[O-])cc1NC(=O)COC(=O)C1CC1	inconclusive: 32.6 µM [activator, partial curve, poor fit]	
Cc1oc2c(c1C(=O)O)C(=O)c1ccccc1C2=O	active: 8.2 µM	
O=C(NC(=S)NC1CCCCCCCCCCC1)c1cccnc1		inactive: 18.8%
Cc1cccc(CN2C(=O)N/C(=C/c3ccc(C)s3)C2=O)c1		inactive: 4.09%
COc1ccccc1NC(=O)c1c(NC(=O)CCC(=O)O)sc2c1CCCCC2		inactive: 9.56%
CCCn1c(SCC(=O)N2N=C3/C(=C/c4ccc(OC)cc4)CCCC3C2c2ccc(OC)cc2)n[nH]c1=O (configuration not stated)	inconclusive: 23.1 µM [inhibitor, single point]	
O=C(Nc1ccc2nc3n(c(=O)c2c1)CCCCC3)C(=O)N1CCN(c2ccccc2F)CC1	inconclusive: 9.2 µM [inhibitor, partial curve, poor fit]	
CC1CCN(CC(=O)Nc2cccc([N+](=O)[O-])c2)CC1	inconclusive: 6.51 µM [inhibitor, partial curve, poor fit]	
COc1cc(S(=O)(=O)N2CCN(Cc3ccc4c(c3)OCO4)CC2)c(C)cc1C		inactive: -7.95%
CCO[C@@H]1OC(C(=O)NCc2nc3ccccc3[nH]2)=C[C@H](c2cn(C(C)=O)c3ccccc23)[C@H]1CCCO	inconclusive: 13 µM [inhibitor, partial curve, poor fit]	
Cc1cccc(N(CC(=O)NC2CCCCC2)C(=O)Cn2nnc(-c3ccc(C)o3)n2)c1	inconclusive: 32.6 µM [inhibitor, partial curve, poor fit]	
C/C(=C/c1oc2ccc(O)cc2c1[N+](=O)[O-])N(C)C	inconclusive: 9.2 µM [activator, partial curve]	
CCC(=O)c1ccc(SC(=O)N(C)C)cc1O	inconclusive: 23.1 µM [activator, single point]	
COc1ccccc1C(=O)Nc1ccc2c(c1)CCCN2C(=O)c1cccs1	inconclusive: 29.1 µM [inhibitor, single point]	
COc1cc(S(=O)(=O)Nc2ccc3c(c2)C(=O)N(C)C3=O)ccc1NC(C)=O	inconclusive: 14.6 µM [activator, partial curve, poor fit]	
CCOc1ccc(CN(C)C(=O)c2cc3ccccc3o2)cc1OC	inconclusive: 25.9 µM [inhibitor, single point]	

Some of the entries so far, with bars between the fields.
Structure (SMILES) | Potency | activity change, negative = inhibition
COc1ccc(-c2nnnn2CCc2ccccc2)cc1 | inconclusive: 29.1 µM [activator, single point] | 
Cc1nn2c(=O)cc(COC(=O)c3c(F)cccc3Cl)nc2s1 | inconclusive: 6.51 µM [activator, partial curve] | 
CC(=O)c1ccc(OCc2cc(C(=O)N(C)CCOc3ccc(C)cc3)no2)cc1 | inconclusive: 16.4 µM [activator, partial curve] | 
Cc1oc2c(c1C(=O)O)C(=O)c1ccccc1C2=O | active: 8.2 µM | 
O=C(NC(=S)NC1CCCCCCCCCCC1)c1cccnc1 |  | inactive: 18.8%
COc1ccccc1NC(=O)c1c(NC(=O)CCC(=O)O)sc2c1CCCCC2 |  | inactive: 9.56%
CC1CCN(CC(=O)Nc2cccc([N+](=O)[O-])c2)CC1 | inconclusive: 6.51 µM [inhibitor, partial curve, poor fit] | 
Cc1cccc(N(CC(=O)NC2CCCCC2)C(=O)Cn2nnc(-c3ccc(C)o3)n2)c1 | inconclusive: 32.6 µM [inhibitor, partial curve, poor fit] | 
C/C(=C/c1oc2ccc(O)cc2c1[N+](=O)[O-])N(C)C | inconclusive: 9.2 µM [activator, partial curve] | 
CCC(=O)c1ccc(SC(=O)N(C)C)cc1O | inconclusive: 23.1 µM [activator, single point] | 
COc1ccccc1C(=O)Nc1ccc2c(c1)CCCN2C(=O)c1cccs1 | inconclusive: 29.1 µM [inhibitor, single point] | 
COc1cc(S(=O)(=O)Nc2ccc3c(c2)C(=O)N(C)C3=O)ccc1NC(C)=O | inconclusive: 14.6 µM [activator, partial curve, poor fit] | 

(list continues)

Structure (SMILES)	Potency	activity change, negative = inhibition
CCC(=O)NCCc1cc2ccc(C)cc2[nH]c1=O	inconclusive: 25.9 µM [activator, partial curve, poor fit]	
Nc1ccc2c(c1)C(=O)N(CC1CCCO1)C2=O (configuration not stated)	inconclusive: 3.66 µM [activator, partial curve, poor fit]	
Cc1ccc(SCC(=O)N2CCCC2)cc1	inconclusive: 20.6 µM [activator, partial curve]	
O=C(Nc1ccc(F)c(F)c1)C1=COCCO1	inconclusive: 23.1 µM [activator, single point]	
CCc1ccc(N=CC2=C(O)CC(c3ccco3)CC2=O)cc1 (configuration not stated)	inconclusive: 20.6 µM [activator, single point]	
COc1cc(OC)c(S(=O)(=O)Nc2ccccc2N2CCOCC2)cc1NC(C)=O	inconclusive: 20.6 µM [activator, partial curve, poor fit]	
CC(=O)Nc1ccc(S(=O)(=O)N2CCNC(=O)C2)cc1		inactive: 5.18%
Cc1ccc(S(=O)(=O)C(C#N)c2nc3ccccc3nc2N2CCCC2)cc1 (configuration not stated)	inconclusive: 16.4 µM [inhibitor, single point]	
CCN(CC)S(=O)(=O)c1ccc(C(=O)N2CCN(CCN3C(=O)c4cccc5cccc(c45)C3=O)CC2)cc1		inactive: 4.11%
C=CCN1C(=O)C(O)(CC(=O)c2ccccc2)c2ccccc21 (configuration not stated)		inactive: -0.677%
COc1ccc(/C=C2/C(=O)ON=C2c2ccccc2)cc1OC	inconclusive: 25.9 µM [activator, single point]	
COC(=O)c1ccc(-c2nc3ccccc3[nH]2)cc1	inconclusive: 2.31 µM [activator, partial curve]	
CC(=O)c1ccc(/C=C/c2nc3ccccc3n2C)o1	inconclusive: 2.59 µM [activator, full curve]	
Cc1ccc(C(=O)O)cc1N1C(=O)c2cccc3c([N+](=O)[O-])ccc(c23)C1=O	inconclusive: 29.1 µM [activator, single point]	
COc1ccc(-n2c(SCC(=O)Nc3ccc(C(N)=O)cc3)nc3c([nH]c4ccccc43)c2=O)cc1OC	inconclusive: 23.1 µM [activator, partial curve]	
Cc1ccccc1N(C(=O)Cc1c[nH]c2ccccc12)C(C(=O)NC1CCCCC1)c1ccco1 (configuration not stated)	inconclusive: 29.1 µM [activator, single point]	
COc1ccc(CNC(=O)C(C)Sc2ccc(C)cc2)cc1 (configuration not stated)		inactive: -3.8%
c1ccc(-c2csc3ncnc(N4CCN(Cc5ccc6c(c5)OCO6)CC4)c23)cc1	inconclusive: 29.1 µM [inhibitor, single point]	
COc1ccc2cc(C=O)n(C)c2c1		inactive: 1.14%
C[C@H]1CN([C@@H](C)CO)C(=O)c2cccc(NC(=O)Nc3ccc(C(F)(F)F)cc3)c2O[C@@H]1CN(C)C(=O)Nc1ccc(F)cc1	inconclusive: 29.1 µM [inhibitor, single point]	
Cc1cc2cc(CNC(=O)Nc3ccccc3)ccc2n1C		inactive: -8.35%
